Values from PubChem BioAssay AID720505 (Drosophila RNAi Screening Center, 2013)
In all, the deposit lists about 20,000 reagents; below is an unselected part of those that have a named target and a result. In the full data, about 2,100 (10%) were called active. 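Raw plate signals without normalisation; calls rest on control-based scores that were not deposited; replicate 2 separates called from uncalled poorly.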 Entries without a mark were called inactive. The numbers tell different reagents against one gene apart. No sequences are given here. Not given: the amount of reagent, the time to read-out.

- Assay: 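Knock-downs that reduce calcium influx once internal stores are emptied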 (primary screen)
- Cells: Drosophila S2R+ cells
- Knock-down reagent: long dsRNA against Drosophila genes
- Challenge: thapsigargin (2 µM) in calcium-free buffer to empty internal stores, then 2 mM calcium added back
- Measured: 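Stores emptied by 2 µM thapsigargin without calcium, then 2 mM calcium re-added; fluo-4 fluorescence followed by FLIPR in 384-well plates, per-well averaged endpoint, raw; two screen passes, some wells retested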
- Scale: calcium signal: higher = more calcium entry after store depletion
- Hit rule: 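About 1500 genes called as lowering calcium entry, by varying amounts, judged against per-plate control wells with STIM1 as positive and Rho1 as negative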
- Meaning of the calls: active = called as lowering calcium entry; inactive = not called

With Taldo (GeneID 37804), what does the deposit list?
calcium signal, replicate 1: 134; calcium signal, replicate 2: 121

How did the screen score cic (GeneID 53560) #1?
calcium signal, replicate 1: 165; calcium signal, replicate 2: 149

Which result is listed for cic (GeneID 53560) #2?
calcium signal, replicate 1: 168; calcium signal, replicate 2: 116

What did the screen give for cic (GeneID 53560) #3?
calcium signal, replicate 1: 113; calcium signal, replicate 2: 85

With cic (GeneID 53560) #4, what was measured?
calcium signal, replicate 1: 257; calcium signal, replicate 2: 122

With cic (GeneID 53560) #5, what does the deposit list?
calcium signal, replicate 1: 91.9; calcium signal, replicate 2: 177

What is on record for CG8960 (GeneID 38280)?
calcium signal, replicate 1: 95.8; calcium signal, replicate 2: 110

With snf (GeneID 31442), what does the deposit list?
calcium signal, replicate 1: 76.5; calcium signal, replicate 2: 68.2

For CG3106 (GeneID 31909), how do the results read?
calcium signal, replicate 1: 141; calcium signal, replicate 2: 148

How did the screen score mnb (GeneID 32771) #1?
calcium signal, replicate 1: 103; calcium signal, replicate 2: 104

How did the screen score mnb (GeneID 32771) #2?
calcium signal, replicate 1: 83.6; calcium signal, replicate 2: 109

What is on record for mnb (GeneID 32771) #3?
calcium signal, replicate 1: 105; calcium signal, replicate 2: 156

How did the screen score Ufsp2 (GeneID 39687)?
calcium signal, replicate 1: 124; calcium signal, replicate 2: 86.9

With Bet3 (GeneID 39090), what does the deposit list?
calcium signal, replicate 1: 82; calcium signal, replicate 2: 97.3

Which result is listed for CG30195 (GeneID 37592)?
calcium signal, replicate 1: 83.5; calcium signal, replicate 2: 141

What is on record for Trf2 (GeneID 31773)?
calcium signal, replicate 1: 162 (active); calcium signal, replicate 2: 98.2

Which result is listed for beat-IIb (GeneID 42082) #1?
calcium signal, replicate 1: 130; calcium signal, replicate 2: 107

With beat-IIb (GeneID 42082) #2, what does the deposit list?
calcium signal, replicate 1: 129; calcium signal, replicate 2: 119

For Cpr47Ef (GeneID 36194) #1, how do the results read?
calcium signal, replicate 1: 112; calcium signal, replicate 2: 146

For Cpr47Ef (GeneID 36194) #2, how do the results read?
calcium signal, replicate 1: 125; calcium signal, replicate 2: 172

For CG13992 (GeneID 33831), how do the results read?
calcium signal, replicate 1: 198; calcium signal, replicate 2: 92.9

What did the screen give for CG9483 (GeneID 34209)?
calcium signal, replicate 1: 73.6; calcium signal, replicate 2: 78.1

How did the screen score CG3652 (GeneID 33643)?
calcium signal, replicate 1: 119; calcium signal, replicate 2: 144

With ppk23 (GeneID 32731), what does the deposit list?
calcium signal, replicate 1: 71 (active); calcium signal, replicate 2: 92.2

For Ack (GeneID 38489), what was measured?
calcium signal, replicate 1: 92.5; calcium signal, replicate 2: 100

With Hmr (GeneID 31988), how do the results read?
calcium signal, replicate 1: 84; calcium signal, replicate 2: 126

With PlexB (GeneID 43766), what does the deposit list?
calcium signal, replicate 1: 141; calcium signal, replicate 2: 161

What is on record for mfrn (GeneID 43353)?
calcium signal, replicate 1: 86.7; calcium signal, replicate 2: 102

For GalT1 (GeneID 36279), what was measured?
calcium signal, replicate 1: 70.3; calcium signal, replicate 2: 202

What is on record for RpS30 (GeneID 42470)?
calcium signal, replicate 1: 97.8 (active); calcium signal, replicate 2: 163

For CG34203 (GeneID 5740243), how do the results read?
calcium signal, replicate 1: 135; calcium signal, replicate 2: 7766

With mRpL30 (GeneID 31398), what was measured?
calcium signal, replicate 1: 258; calcium signal, replicate 2: 115

With Coq8 (GeneID 32239), what was measured?
calcium signal, replicate 1: 136; calcium signal, replicate 2: 93.1

For Osi4 (GeneID 40758), how do the results read?
calcium signal, replicate 1: 117; calcium signal, replicate 2: 114

What is on record for insb (GeneID 36967)?
calcium signal, replicate 1: 133; calcium signal, replicate 2: 127

Entries listed so far with an active call (3):
Trf2 (GeneID 31773): calcium signal, replicate 1 = 162 (active); calcium signal, replicate 2 = 98.2
ppk23 (GeneID 32731): calcium signal, replicate 1 = 71 (active); calcium signal, replicate 2 = 92.2
RpS30 (GeneID 42470): calcium signal, replicate 1 = 97.8 (active); calcium signal, replicate 2 = 163
